# “And” between values parts separate entries of the source, which are not always exact repeats. Identical values can stand only once. Inconclusive means that the source gave no clear call. Such entries were picked first, then a sample of the others. For some assays here: A potency beside an inconclusive call is a rough fit, not a confirmed value. The source made the active and inactive calls. Unless noted, calls follow the shape of the full dose curve.
# Amino acid sequences for entries named in this document (tags omitted).
# UniProt P14416, whole entry, looked up: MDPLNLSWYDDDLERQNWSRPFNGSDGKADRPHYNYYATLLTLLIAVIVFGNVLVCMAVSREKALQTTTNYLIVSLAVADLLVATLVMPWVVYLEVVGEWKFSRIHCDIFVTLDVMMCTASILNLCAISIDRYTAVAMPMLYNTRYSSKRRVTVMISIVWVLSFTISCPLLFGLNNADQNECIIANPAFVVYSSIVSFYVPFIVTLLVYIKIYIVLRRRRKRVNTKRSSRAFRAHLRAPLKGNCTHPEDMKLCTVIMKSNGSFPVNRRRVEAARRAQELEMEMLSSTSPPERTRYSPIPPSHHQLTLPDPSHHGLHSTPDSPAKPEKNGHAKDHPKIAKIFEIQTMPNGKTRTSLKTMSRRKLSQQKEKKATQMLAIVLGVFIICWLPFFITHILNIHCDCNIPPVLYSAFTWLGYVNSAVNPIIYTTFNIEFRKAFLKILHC
# Assays:
# [1] = Nuclear factor erythroid 2-related factor 2/antioxidant responsive element (Nrf2/ARE) small molecule agonists: luciferase reporter gene qHTS assay in human keratinocytes (AID 1919969); also: nearly all actives have a fitted effect of over 35% in size; also: potency is read from the fitted curve at half-maximal effect
# [2] = target: Beta-2 adrenergic receptor (Homo sapiens) (UniProt P07550); assay: Adrenergic beta2 receptor (ADRB2) small molecule agonists, cell-based qHTS assay (AID 1963593); conditions: CHO-ADRB2 cells, cAMP HTRF, 30 min; activation: at 92.4 µM (top of the series) unless noted; also: potency is read from the fitted curve at half-maximal effect;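 as to activation: CHO cells stably overexpressing human ADRB2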
# Procedure, shortened: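 CHO cells stably over-expressing ADRB2 were plated overnight at 37C, then dosed with compounds plus a stimulation mix containing 100uM IBMX and 25uM Ro-20-1724 for 0.5hr at room temperature. cAMP was measured by HTRF competition, 1hr.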
# [3] = cAMP Responsive Elements (CRE) small molecule agonists, cell-based qHTS assay (AID 1963590); conditions: CRE-bla HEK293T, beta-lactamase FRET ratio, 3 h; activation: at 92.4 µM (top of the series) unless noted; also: potency is read from the fitted curve at half-maximal effect
# Procedure, shortened: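 Quantitative HTS for CRE agonists: HEK 293T CRE-bla cells, overnight plating, 3 h compound incubation at 37 C/5% CO2, then 2 h room-temperature LiveBLAzer B/G FRET substrate loading.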
# [4] = cAMP Responsive Elements (CRE) small molecule antagonists, cell-based qHTS assay (AID 1963591; active = well fitted inhibition curve with a large enough effect in the signal ratio in the repeat runs, not every such curve was filed as active; inconclusive = weak or mixed curves, or effect the other way; the % refers to the signal ratio; also: potency is read from the fitted curve at half-maximal effect); conditions: CRE-bla HEK293T, beta-lactamase FRET ratio; activity change, negative = inhibition: at 92.4 µM (top of the series) unless noted
# Procedure, shortened: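 Fluorescence intensity from cleaved LiveBLAzer B/G substrate (2 h, room temperature) quantified CRE-bla activity in HEK 293T cells exposed 3 h to compound with 0.25 uM final NKH477.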
# [5] = target: D(2) dopamine receptor (Homo sapiens) (UniProt P14416); assay: Dopamine D2 receptor (DRD2) small molecule antagonists, cell-based qHTS assay (AID 1963595; active = well fitted inhibition curve with a large enough effect in the signal ratio in the repeat runs, with a control signal flat; inconclusive = weak or mixed curves, or effect the other way; the % refers to the signal ratio); conditions: HEK293-DRD2 cAMP HTRF antagonist mode; activity change, negative = inhibition: at 92.4 µM (top of the series) unless noted
# Procedure, shortened: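 HEK293 cells stably expressing DRD2 were preincubated with 0.1 mM Ro20-1724, then with compound for 10 min at room temperature. Cells were stimulated with 200 nM NKH477 plus 12 nM quinpirole for 30 min, and cAMP was read by HTRF.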
# % is scaled to controls: 0 for no effect and ±100 for the full control effect.
compound,measurement,setting,value
c1coc(-c2nc3ccccc3[nH]2)c1,Potency,[1],"inconclusive: 6.11 µM [activator, single point]"
same,Potency,[2],inactive
c1ccc(NNc2ccccc2)cc1,Potency,[1],"inconclusive: 38.6 µM [activator, partial curve]"
same,Potency,[3],inactive
same,activation,[2],inconclusive: 0.722%
COc1cc(OC)nc(Sc2cccc(Cl)c2C(=O)O)n1,Potency,[1],inactive
same,Potency,[4],inactive
same,Potency,[2],inactive
COC(=O)c1ccccc1S(=O)(=O)NC(=O)Nc1nc(C)cc(C)n1,Potency,[1],inactive
same,Potency,[3],inactive
same,activation,[2],inconclusive: 1.03%
same,Potency,[5],inactive
O=C(O)COc1cc(Cl)c(Cl)cc1Cl,Potency,[1],"inconclusive: 0.0969 µM [activator, single point]"
same,Potency,[4],inconclusive: 27.3 µM [fluorescent]
same,"activity change, negative = inhibition",[4],inconclusive: 2.7%
same,activation,[2],inconclusive: 15.8% and inconclusive: -1.56%
C=CC(=O)OCC(C)O (centres undefined),Potency,[1],"inconclusive: 70.8 µM [activator, partial curve, poor fit]"
same,Potency,[3],inactive
same,Potency,[2],"inconclusive: 2.82 µM [inhibitor, full curve, poor fit]"
N#CN,Potency,[1],"inconclusive: 113 µM [activator, partial curve]"
same,Potency,[2],inactive
CCc1ccccc1C,Potency,[1],inactive
same,activation,[2],inconclusive: -0.692%
CC(=O)Nc1ccc2c(c1)Cc1ccccc1-2,Potency,[1],"inconclusive: 19.6 µM [activator, partial curve]"
same,Potency,[3],"inconclusive: 27.7 µM [rising, partial curve]"
same,Potency,[4],inactive
same,Potency,[2],inactive
Fc1cc(Br)ccc1CBr,Potency,[1],inactive
same,Potency,[2],"inconclusive: 1.88 µM [inhibitor, partial curve, poor fit]"

# From PubChem BioAssay (Tox21)
